Measured values as given in patent publication US20100331240A1 (GENERAL HOSPITAL, published 2010).

Biological target: T1, biotinylated human placental calreticulin (human, UniProt P27797 18-417, biotinylated (sites not given))
T1 sequence: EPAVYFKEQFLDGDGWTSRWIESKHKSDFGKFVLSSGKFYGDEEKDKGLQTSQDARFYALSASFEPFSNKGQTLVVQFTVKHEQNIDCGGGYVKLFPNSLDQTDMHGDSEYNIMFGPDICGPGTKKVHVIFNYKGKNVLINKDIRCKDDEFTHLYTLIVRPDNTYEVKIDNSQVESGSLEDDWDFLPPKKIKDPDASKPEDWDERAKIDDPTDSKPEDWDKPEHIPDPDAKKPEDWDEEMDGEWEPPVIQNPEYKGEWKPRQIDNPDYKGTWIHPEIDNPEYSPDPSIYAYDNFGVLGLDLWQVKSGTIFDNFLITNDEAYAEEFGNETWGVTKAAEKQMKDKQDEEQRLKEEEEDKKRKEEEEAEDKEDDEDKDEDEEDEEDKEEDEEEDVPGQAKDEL
Assay: ELISA: plate coated with lectin 10 ug/mL, biotinylated calreticulin 5 ug/mL, O.D. 405

B1: L-FCN-MBL126 chimeric L-ficolin-MBL fusion protein (other)
chain: LQAADTCPEVKMVGLEGSDKLTILRGCPGLPGAPGPKGEAGTNGKRGERGPPGPPGKAGPPGPNGAPGEPQPCLTGPRTCKDLLDRGHFLSGWHTIYLPDCRPLTFSLGKQVGNKFFLTNGEIMTFEKVKALCVKFQASVATPRNAAENGAIQNLIKEEAFLGITDEKTEGQFVDLTGNRLTYTNWNEGEPNNAGSDEDCVLLLKNGQWNDVPCSTSHLAVCEFPI
binding result: binds
